According to patent publication EP0786470A1, “PEPTIDE COMPOUND” (SEIKAGAKU KOGYO KABUSHIKI KAISHA, priority 1993, dated 1997):

Test system: Wistar rats
Conditions: intracerebral administration alone; site not specified

## NCCCC(=O)O [γ-aminobutyric acid]
  dose required to obtain the inhibition effect, in comparison with the dose of the peptide compound of the present invention: ≥ 80 times
